Measurements reported in article PMC7819943, “Rice protein-binding microarrays: a tool to detect cis-acting elements near promoter regions in rice”.
The list shows a part of the results.

biological target: T1, OsSMF1 (Oryza sativa, UniProt Q6ZLB0 1-436); assay: protein-binding microarray (RPBM); PBS, 2% BSA, 51.3 ng/ul salmon testes DNA, 50 uM zinc acetate, 200 nM TF, 25 C, 1 h; high values mean tight binding; settings: protein: recombinant; tags: N-terminal polyhistidine and DsRed monomer fusion (pET32a); chain copies: 2; label: CyDye5-dUTP incorporated in the synthesized complementary strand; 3' TTTTT single-stranded linker to array surface; dsDNA, one strand shown
T1 sequence: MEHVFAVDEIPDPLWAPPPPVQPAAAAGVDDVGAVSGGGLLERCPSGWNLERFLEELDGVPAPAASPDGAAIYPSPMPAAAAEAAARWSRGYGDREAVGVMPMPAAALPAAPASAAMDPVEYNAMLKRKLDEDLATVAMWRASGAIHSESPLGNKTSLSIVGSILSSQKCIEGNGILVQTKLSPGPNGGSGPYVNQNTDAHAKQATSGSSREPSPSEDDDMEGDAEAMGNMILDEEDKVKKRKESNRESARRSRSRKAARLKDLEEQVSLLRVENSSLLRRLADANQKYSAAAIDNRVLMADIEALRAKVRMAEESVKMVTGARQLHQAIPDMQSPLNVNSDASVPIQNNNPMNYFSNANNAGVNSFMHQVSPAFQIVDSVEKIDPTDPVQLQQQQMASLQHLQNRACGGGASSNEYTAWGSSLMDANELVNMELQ
Method in brief: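 Binding signal is defined as the fluorescence intensity of each feature in arbitrary units, read on an Axon 4000B scanner. Transcription factors with N-terminal polyhistidine and DsRed fusions came from E. coli BL21-CodonPlus and were purified on Ni–NTA. They were incubated at 200 nM for 1 h at 25 °C on a custom Agilent array that had been made double-stranded with Cy5-dUTP, with 50 µM zinc acetate present, and the array was washed.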

Sequence	binding signal
CAAAATACAGCAACATTTACAGCTTCGACACTGCACTCAACGGAGTCACCTAGTGCAG	3410 fluorescence intensity (a.u.)
CCCCGGACTCCACTCTACACCCTTCACGCGCGCGAGCACGCGGAGTCACCTAGTGCAG	3410 fluorescence intensity (a.u.)
CATACACACACTGTGTCTTAGAGTCCGTGCTACAGCTGGCCGGAGTCACCTAGTGCAG	3150 fluorescence intensity (a.u.)
AGTAGGACGTCCTTTCGCCTCGTCGTCCACGTTGGAAAACCGGAGTCACCTAGTGCAG	4700 fluorescence intensity (a.u.)
GGACGTGGTGTTTTGCAAGATTGCTGATCACATGGAGAAACGGAGTCACCTAGTGCAG	3620 fluorescence intensity (a.u.)
AATCATGCCTTAATCTAGGCCTCGTTCGAACTAAGGCATGCGGAGTCACCTAGTGCAG	24500 fluorescence intensity (a.u.)
AGAAAACCAATCCGAATCCGGAGAGAGAAGCGCAGGAGGCCGGAGTCACCTAGTGCAG	10200 fluorescence intensity (a.u.)
TGGCGCGCTCAGAGACGGCCTCACACGTACGACTCGCCTCCGGAGTCACCTAGTGCAG	20400 fluorescence intensity (a.u.)
TGCTTCCGTTTGTTGATCGATGCTGGCGATGATGTGTGTGCGGAGTCACCTAGTGCAG	4160 fluorescence intensity (a.u.)
GTATTTAGCCCTGGTTGTATGGTCATGACGGGTTATCGTACGGAGTCACCTAGTGCAG	3280 fluorescence intensity (a.u.)
TACCAGTCCCGAAACAACTAGTATTTCTCTTCGATACGGACGGAGTCACCTAGTGCAG	3520 fluorescence intensity (a.u.)
CGCCCACCTATCTTACCACTGACACATTGGCCCCACCACCCGGAGTCACCTAGTGCAG	4120 fluorescence intensity (a.u.)
GCCGCTCGCCGGCACCACGTCGCCTTCTCCCCTTGCAGACCGGAGTCACCTAGTGCAG	3670 fluorescence intensity (a.u.)
GTGTGTGTGTGTGTATATATAATCCAAATATAATACTTTTCGGAGTCACCTAGTGCAG	3620 fluorescence intensity (a.u.)
AACCCAATCTTACACACATCTGTCATCAAGATCCGTGCGCCGGAGTCACCTAGTGCAG	3980 fluorescence intensity (a.u.)
GTGGACCGTGGTTACACGTGCCAGGTCGACGTGTTCTTCTCGGAGTCACCTAGTGCAG	6290 fluorescence intensity (a.u.)
TAAAGTTCTTGCTGCTGTGACTCTGCTTTGCTTGCTTCTTCGGAGTCACCTAGTGCAG	4740 fluorescence intensity (a.u.)
TACGCTCTCGCAGCGCCTCCACGTGCCCGTGTCACGCTCGCGGAGTCACCTAGTGCAG	6640 fluorescence intensity (a.u.)
CGTATCCGTGTCTCGATCTGGGCCCCACCTGTCAGTGTCTCGGAGTCACCTAGTGCAG	4010 fluorescence intensity (a.u.)
CTGGAATGGTCTCGGAGGGTTCTTAGCTGGCTTTTCGATTCGGAGTCACCTAGTGCAG	3500 fluorescence intensity (a.u.)
CGATTTTCTATTTGCTTCCAACGCTGAATGTACGTATCTGCGGAGTCACCTAGTGCAG	3680 fluorescence intensity (a.u.)

Sequence	binding signal
GGAAGAGCCCGTGATGGTGTTACGTCCACGTCAGCCCAGCCGGAGTCACCTAGTGCAG	35800 fluorescence intensity (a.u.)
GCGTGACCCGCGTTTAGACTTTTGACTAGCCAACTCACACCGGAGTCACCTAGTGCAG	3740 fluorescence intensity (a.u.)
ACTCAATAGAAGTGAGTCTAATGAATCTAGTCAGATTGGCCGGAGTCACCTAGTGCAG	4060 fluorescence intensity (a.u.)
TGATCCCCGCCGGCCGCCGCCGCCCTCGCAACCCTCGCAGCGGAGTCACCTAGTGCAG	3470 fluorescence intensity (a.u.)
CAAATCTAACCCTGTCATCGATGTGTGTTATCGGTGACGGCGGAGTCACCTAGTGCAG	5670 fluorescence intensity (a.u.)
CGCCCGCTTCGACGACCACACGTGGGCTCGCCACGTGTCACGGAGTCACCTAGTGCAG	12400 fluorescence intensity (a.u.)
TACCATCCTGTGACGCTAGTGGCCACCTCCCTTCACGCAGCGGAGTCACCTAGTGCAG	3500 fluorescence intensity (a.u.)
TAGCGTTGATCTTTTGCTAATCTCTGAATCTAGCACGCGGCGGAGTCACCTAGTGCAG	3340 fluorescence intensity (a.u.)
ACACCACTCTCTCGTTCTCTCTCTCTCTCCCCGTCTTCCTCGGAGTCACCTAGTGCAG	3290 fluorescence intensity (a.u.)
GAGAGGAGGAAGACAGAGAGGAGAGATGAGATAGGATCAACGGAGTCACCTAGTGCAG	46200 fluorescence intensity (a.u.)
AGCAGCTAGCAGCATCTGCATCAGGGTGGGCAGGTTAACGCGGAGTCACCTAGTGCAG	3180 fluorescence intensity (a.u.)
GCGATCTGTCTTTGTACGGCGGTAGCTGTAGTTGGACACGCGGAGTCACCTAGTGCAG	3290 fluorescence intensity (a.u.)
TGTGGTGTTGCATGTGTAGTAATATGTGCGCACGTATGTACGGAGTCACCTAGTGCAG	3630 fluorescence intensity (a.u.)
CGGTGTTTGTAATTCATTTTATATAATGAAAATGGATTATCGGAGTCACCTAGTGCAG	44600 fluorescence intensity (a.u.)
GCATATGCCATTGAAAGCGAATATTCATGTGCATTACCACCGGAGTCACCTAGTGCAG	6940 fluorescence intensity (a.u.)
CTATTTTAGTTACGATGACAGCATCGTGTAGTCCAAATAGCGGAGTCACCTAGTGCAG	3480 fluorescence intensity (a.u.)
CTTCTCAAGCAGGAGGAGGACTTGCCATGGTGTTGATTTGCGGAGTCACCTAGTGCAG	3740 fluorescence intensity (a.u.)
GATACACATCACCAGGTAGGTCCGCTAGGTGCGAAAGAGTCGGAGTCACCTAGTGCAG	14500 fluorescence intensity (a.u.)
AACCCATTCGGAGAGGTCGCCGAGTGGATTCGACGTTGGACGGAGTCACCTAGTGCAG	3200 fluorescence intensity (a.u.)
AACGATGGTTTTATCCATTGTGACGTTGAGTGAGCCGGCTCGGAGTCACCTAGTGCAG	3190 fluorescence intensity (a.u.)
CTTGCCGCAAGACCACCGACCGTCGATTCCACGCCGCTCTCGGAGTCACCTAGTGCAG	3800 fluorescence intensity (a.u.)

As a working copy, some entries already given.
Sequence	binding signal
CGCCCGCTTCGACGACCACACGTGGGCTCGCCACGTGTCACGGAGTCACCTAGTGCAG	12400 fluorescence intensity (a.u.)
TACCATCCTGTGACGCTAGTGGCCACCTCCCTTCACGCAGCGGAGTCACCTAGTGCAG	3500 fluorescence intensity (a.u.)
TAGCGTTGATCTTTTGCTAATCTCTGAATCTAGCACGCGGCGGAGTCACCTAGTGCAG	3340 fluorescence intensity (a.u.)
ACACCACTCTCTCGTTCTCTCTCTCTCTCCCCGTCTTCCTCGGAGTCACCTAGTGCAG	3290 fluorescence intensity (a.u.)
